Reference: article PMC12436004
No constants are given. Whether binding was seen depends on the method and setting. In cells and extracts the contact can be indirect. Some results given as binding are weak or reduced against the parent protein; the word gives no strength. For part of these data: Tags and fused reporters may be left off the sequences shown. Each block holds one binder with its values, some of them ahead of it.

By UniProt entry, the sequences of proteins in these tests, tags left out.
UniProt Q96P20: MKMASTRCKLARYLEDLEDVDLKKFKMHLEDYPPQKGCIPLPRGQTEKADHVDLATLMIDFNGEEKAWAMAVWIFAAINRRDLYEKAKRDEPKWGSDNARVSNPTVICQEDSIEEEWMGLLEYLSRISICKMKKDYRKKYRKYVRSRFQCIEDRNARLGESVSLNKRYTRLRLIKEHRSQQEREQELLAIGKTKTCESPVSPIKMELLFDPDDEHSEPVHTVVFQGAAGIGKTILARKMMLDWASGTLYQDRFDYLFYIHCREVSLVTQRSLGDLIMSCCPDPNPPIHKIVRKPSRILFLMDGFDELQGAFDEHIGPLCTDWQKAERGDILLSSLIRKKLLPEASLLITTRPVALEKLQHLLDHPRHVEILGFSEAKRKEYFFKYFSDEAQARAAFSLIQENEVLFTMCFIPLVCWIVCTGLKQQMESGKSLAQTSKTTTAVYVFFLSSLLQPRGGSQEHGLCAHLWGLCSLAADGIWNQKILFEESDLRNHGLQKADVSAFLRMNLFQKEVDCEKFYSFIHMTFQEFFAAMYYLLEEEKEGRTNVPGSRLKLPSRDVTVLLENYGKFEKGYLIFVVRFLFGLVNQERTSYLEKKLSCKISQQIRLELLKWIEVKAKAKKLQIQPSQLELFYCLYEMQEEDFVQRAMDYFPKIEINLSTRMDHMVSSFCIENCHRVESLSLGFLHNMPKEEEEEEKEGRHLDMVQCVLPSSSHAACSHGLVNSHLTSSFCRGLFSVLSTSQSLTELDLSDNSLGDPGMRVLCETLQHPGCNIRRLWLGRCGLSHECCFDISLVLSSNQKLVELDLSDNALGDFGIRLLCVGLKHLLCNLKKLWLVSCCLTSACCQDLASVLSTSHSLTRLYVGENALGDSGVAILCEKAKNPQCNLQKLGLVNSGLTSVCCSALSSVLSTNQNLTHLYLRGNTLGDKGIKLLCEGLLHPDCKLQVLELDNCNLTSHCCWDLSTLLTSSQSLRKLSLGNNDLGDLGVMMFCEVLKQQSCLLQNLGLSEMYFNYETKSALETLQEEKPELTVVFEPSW
UniProt D4A523: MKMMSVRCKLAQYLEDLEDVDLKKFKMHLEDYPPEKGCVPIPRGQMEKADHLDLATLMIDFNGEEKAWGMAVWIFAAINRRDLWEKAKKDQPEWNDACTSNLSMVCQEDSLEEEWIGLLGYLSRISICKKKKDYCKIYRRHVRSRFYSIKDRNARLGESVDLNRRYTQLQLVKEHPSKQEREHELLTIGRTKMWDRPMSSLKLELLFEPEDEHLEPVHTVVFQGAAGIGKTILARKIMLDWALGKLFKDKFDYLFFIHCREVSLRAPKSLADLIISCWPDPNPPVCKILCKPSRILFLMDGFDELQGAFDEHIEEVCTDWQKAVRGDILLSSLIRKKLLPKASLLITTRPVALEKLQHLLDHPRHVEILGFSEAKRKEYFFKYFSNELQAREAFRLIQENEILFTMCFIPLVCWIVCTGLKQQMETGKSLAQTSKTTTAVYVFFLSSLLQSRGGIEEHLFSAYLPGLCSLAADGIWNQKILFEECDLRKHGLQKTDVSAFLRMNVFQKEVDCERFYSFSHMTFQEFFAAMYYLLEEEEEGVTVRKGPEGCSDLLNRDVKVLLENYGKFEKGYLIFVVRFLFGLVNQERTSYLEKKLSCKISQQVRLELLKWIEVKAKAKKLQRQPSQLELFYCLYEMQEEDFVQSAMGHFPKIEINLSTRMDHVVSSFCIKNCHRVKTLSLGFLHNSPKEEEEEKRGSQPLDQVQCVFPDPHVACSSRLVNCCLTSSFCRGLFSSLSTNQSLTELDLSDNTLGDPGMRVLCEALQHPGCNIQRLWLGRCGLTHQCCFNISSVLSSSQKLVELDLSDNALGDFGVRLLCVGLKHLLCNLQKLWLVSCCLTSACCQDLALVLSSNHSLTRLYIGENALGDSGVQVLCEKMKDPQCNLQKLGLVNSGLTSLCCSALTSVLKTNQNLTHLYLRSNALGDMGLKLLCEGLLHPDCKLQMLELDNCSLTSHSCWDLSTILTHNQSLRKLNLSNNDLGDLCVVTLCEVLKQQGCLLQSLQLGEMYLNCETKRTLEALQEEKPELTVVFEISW

Legend:
Flag-NLRP3 = Flag-NLRP3 (UniProt Q96P20); assay: co-IP; exogenous: Flag-NLRP3 and HA-SIRT2 co-transfected into HEK-293T; lysate incubated overnight at 4°C with magnetic beads conjugated to anti-Flag antibody; washed five times with TBST; immunoblotting
[1] = molecular target: NLRP3 (endogenous, TC28a cells) (human (endogenous in TC28a)) (UniProt Q96P20); assay: co-IP; endogenous: RC or TC28a lysate incubated at 4°C for 12 h with magnetic beads and NLRP3 primary antibody or IgG; washed five times with TBST; Western blotting
[2] = molecular target: NLRP3 (endogenous, primary rat chondrocytes) (rat (endogenous in primary rat chondrocytes)) (UniProt D4A523); assay: as above

binding (Flag-NLRP3): binds
B1: HA-SIRT2 (protein, UniProt Q8IXJ6 1-389)
chain: MAEPDPSHPLETQAGKVQEAQDSDSDSEGGAAGGEADMDFLRNLFSQTLSLGSQKERLLDELTLEGVARYMQSERCRRVICLVGAGISTSAGIPDFRSPSTGLYDNLEKYHLPYPEAIFEISYFKKHPEPFFALAKELYPGQFKPTICHYFMRLLKDKGLLLRCYTQNIDTLERIAGLEQEDLVEAHGTFYTSHCVSASCRHEYPLSWMKEKIFSEVTPKCEDCQSLVKPDIVFFGESLPARFFSCMQSDFLKVDLLLVMGTSLQVQPFASLISKAPLSTPRLLINKEKAGQSDPFLGMIMGLGGGMDFDSKKAYRDVAWLGECDQGCLALAELLGWKKELEDLVRREHASIDAQSGAGVPNPSTSASPKKSPPPAKDEARTTEREKPQ

binding [1]: binds
B2: SIRT2 (endogenous, TC28a cells) (protein, UniProt Q8IXJ6 1-389)
chain: B1 chain

binding [2]: binds
B3: SIRT2 (endogenous, primary rat chondrocytes) (protein, UniProt Q5RJQ4 1-350)
chain: MDFLRNLFTQTLGLGSQKERLLDELTLEGVTRYMQSERCRRVICLVGAGISTSAGIPDFRSPSTGLYANLEKYHLPYPEAIFEISYFKKHPEPFFALAKELYPGQFKPTICHYFIRLLKEKGLLLRCYTQNIDTLERVAGLEPQDLVEAHGTFYTSHCVNTSCGKEYTMSWMKEKIFSEATPKCEKCQNVVKPDIVFFGENLPPRFFSCMQSDFSKVDLLIIMGTSLQVQPFASLISKAPLATPRLLINKEKTGQTDPFLGMMMGLGGGMDFDSKKAYRDVAWLGDCDQGCLALADLLGWKELEDLVRREHANIDAQSGSQASNPSATVSPRKSPPPAKEAARTKEKEEH
